According to the supplement of paper PMC10849652:
Some of the results follow.

The chains behind the UniProt entries cited, without tags or fusion partners. Where a name states a change or a piece, a line headed by the entry shows the natural chain unless it says otherwise.
UniProt Q92616, whole entry, looked up: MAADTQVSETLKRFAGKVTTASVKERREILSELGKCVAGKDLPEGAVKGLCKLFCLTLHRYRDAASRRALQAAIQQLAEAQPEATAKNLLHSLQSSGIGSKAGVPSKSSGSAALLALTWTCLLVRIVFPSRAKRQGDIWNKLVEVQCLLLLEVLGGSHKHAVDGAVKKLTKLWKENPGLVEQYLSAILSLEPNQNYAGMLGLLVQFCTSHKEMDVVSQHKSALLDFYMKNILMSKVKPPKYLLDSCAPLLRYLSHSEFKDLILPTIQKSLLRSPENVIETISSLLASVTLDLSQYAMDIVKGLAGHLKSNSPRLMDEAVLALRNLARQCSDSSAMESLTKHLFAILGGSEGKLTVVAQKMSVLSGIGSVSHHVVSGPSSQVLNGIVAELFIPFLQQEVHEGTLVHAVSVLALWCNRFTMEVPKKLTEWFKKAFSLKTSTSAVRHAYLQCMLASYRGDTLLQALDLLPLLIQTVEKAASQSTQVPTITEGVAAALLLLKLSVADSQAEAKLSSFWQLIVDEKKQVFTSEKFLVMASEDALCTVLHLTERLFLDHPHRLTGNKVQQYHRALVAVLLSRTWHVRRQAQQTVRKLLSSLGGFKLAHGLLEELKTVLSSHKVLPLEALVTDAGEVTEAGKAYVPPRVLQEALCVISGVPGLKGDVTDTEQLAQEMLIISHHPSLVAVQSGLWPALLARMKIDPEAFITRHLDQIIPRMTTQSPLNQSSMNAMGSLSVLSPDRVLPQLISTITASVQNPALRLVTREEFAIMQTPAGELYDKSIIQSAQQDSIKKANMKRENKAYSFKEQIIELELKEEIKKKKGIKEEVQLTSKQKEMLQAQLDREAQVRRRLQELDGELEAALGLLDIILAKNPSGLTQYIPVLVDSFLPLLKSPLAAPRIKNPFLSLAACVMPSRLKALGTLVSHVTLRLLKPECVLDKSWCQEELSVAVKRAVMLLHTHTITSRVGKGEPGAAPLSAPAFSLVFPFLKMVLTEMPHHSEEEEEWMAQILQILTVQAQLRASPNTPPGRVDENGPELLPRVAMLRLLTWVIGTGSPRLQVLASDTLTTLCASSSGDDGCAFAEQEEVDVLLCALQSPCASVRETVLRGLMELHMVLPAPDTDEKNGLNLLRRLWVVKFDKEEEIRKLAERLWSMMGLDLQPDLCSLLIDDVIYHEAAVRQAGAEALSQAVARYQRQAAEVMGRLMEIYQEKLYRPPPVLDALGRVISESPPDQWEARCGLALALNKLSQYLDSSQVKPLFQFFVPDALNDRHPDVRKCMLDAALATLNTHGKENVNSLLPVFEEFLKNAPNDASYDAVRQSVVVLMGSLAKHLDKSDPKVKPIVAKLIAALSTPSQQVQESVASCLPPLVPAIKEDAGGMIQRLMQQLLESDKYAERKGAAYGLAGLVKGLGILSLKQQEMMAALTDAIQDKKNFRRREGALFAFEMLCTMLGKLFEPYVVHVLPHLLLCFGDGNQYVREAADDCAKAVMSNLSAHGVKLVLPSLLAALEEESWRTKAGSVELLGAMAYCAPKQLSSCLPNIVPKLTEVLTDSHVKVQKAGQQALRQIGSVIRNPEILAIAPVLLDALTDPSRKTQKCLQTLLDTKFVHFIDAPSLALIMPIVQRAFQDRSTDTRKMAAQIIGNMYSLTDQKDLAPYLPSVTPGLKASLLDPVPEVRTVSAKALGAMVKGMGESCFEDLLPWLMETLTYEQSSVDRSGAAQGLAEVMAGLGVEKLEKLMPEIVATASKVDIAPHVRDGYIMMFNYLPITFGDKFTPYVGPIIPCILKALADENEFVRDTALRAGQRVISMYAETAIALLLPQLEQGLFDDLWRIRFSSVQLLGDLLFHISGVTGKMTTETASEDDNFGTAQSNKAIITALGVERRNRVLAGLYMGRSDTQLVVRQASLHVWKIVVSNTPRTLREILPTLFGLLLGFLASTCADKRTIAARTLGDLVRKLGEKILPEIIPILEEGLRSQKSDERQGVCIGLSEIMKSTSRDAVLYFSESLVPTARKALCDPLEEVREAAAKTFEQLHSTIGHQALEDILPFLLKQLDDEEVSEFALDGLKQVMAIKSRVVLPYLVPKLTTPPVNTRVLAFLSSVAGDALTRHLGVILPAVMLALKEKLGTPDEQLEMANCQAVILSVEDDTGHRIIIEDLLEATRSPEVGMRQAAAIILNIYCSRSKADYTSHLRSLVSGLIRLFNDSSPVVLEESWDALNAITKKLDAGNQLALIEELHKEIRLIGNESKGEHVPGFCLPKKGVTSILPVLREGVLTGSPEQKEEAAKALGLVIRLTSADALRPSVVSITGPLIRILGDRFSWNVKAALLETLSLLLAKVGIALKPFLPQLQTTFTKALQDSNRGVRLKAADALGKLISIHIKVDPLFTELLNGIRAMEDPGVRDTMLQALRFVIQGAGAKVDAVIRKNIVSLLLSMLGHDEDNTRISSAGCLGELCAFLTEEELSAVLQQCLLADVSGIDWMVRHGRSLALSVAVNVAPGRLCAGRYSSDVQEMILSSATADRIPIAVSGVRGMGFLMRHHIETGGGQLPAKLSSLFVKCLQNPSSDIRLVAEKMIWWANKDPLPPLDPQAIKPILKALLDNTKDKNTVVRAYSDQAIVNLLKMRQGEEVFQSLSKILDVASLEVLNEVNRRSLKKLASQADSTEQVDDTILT
UniProt O75600: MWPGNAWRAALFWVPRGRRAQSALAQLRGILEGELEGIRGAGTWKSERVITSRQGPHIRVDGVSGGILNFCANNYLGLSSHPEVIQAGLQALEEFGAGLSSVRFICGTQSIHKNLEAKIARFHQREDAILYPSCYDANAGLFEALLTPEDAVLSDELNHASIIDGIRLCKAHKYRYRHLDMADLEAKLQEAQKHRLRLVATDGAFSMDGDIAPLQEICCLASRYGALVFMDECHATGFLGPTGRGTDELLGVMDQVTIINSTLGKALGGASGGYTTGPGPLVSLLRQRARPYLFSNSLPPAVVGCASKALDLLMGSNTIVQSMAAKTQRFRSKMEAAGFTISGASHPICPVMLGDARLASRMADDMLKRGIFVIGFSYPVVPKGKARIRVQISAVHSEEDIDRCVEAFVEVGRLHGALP
UniProt P04062: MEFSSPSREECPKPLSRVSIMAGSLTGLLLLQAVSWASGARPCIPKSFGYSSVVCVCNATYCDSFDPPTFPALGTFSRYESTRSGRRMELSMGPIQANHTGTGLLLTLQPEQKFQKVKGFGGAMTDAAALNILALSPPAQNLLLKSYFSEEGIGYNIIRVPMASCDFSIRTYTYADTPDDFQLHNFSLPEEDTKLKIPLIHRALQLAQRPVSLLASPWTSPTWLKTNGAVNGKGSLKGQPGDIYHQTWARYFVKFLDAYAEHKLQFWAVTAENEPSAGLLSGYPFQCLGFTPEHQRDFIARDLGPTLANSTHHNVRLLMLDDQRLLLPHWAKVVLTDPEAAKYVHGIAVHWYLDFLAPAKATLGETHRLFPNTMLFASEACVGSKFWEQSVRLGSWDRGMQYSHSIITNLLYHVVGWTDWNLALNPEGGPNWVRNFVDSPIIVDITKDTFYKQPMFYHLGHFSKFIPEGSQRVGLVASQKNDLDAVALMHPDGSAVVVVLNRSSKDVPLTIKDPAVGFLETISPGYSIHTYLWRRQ
UniProt Q96C23: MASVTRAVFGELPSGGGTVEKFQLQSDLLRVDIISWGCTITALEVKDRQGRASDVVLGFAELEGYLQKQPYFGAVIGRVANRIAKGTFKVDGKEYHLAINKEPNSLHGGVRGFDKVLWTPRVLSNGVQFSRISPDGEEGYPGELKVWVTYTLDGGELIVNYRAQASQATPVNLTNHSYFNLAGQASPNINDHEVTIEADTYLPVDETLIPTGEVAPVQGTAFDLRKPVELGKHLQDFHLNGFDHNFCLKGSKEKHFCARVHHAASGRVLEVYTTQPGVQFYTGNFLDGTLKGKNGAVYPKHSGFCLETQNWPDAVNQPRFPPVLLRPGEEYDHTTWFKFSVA
UniProt Q92820: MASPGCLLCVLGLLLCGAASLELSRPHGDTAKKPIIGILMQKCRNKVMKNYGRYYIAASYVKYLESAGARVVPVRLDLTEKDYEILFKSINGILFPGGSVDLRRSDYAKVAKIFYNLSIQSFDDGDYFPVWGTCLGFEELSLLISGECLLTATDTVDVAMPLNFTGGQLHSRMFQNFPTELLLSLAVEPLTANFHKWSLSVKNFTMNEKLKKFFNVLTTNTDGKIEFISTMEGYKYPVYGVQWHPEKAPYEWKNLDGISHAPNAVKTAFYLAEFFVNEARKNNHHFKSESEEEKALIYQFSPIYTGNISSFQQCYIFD
UniProt Q14697: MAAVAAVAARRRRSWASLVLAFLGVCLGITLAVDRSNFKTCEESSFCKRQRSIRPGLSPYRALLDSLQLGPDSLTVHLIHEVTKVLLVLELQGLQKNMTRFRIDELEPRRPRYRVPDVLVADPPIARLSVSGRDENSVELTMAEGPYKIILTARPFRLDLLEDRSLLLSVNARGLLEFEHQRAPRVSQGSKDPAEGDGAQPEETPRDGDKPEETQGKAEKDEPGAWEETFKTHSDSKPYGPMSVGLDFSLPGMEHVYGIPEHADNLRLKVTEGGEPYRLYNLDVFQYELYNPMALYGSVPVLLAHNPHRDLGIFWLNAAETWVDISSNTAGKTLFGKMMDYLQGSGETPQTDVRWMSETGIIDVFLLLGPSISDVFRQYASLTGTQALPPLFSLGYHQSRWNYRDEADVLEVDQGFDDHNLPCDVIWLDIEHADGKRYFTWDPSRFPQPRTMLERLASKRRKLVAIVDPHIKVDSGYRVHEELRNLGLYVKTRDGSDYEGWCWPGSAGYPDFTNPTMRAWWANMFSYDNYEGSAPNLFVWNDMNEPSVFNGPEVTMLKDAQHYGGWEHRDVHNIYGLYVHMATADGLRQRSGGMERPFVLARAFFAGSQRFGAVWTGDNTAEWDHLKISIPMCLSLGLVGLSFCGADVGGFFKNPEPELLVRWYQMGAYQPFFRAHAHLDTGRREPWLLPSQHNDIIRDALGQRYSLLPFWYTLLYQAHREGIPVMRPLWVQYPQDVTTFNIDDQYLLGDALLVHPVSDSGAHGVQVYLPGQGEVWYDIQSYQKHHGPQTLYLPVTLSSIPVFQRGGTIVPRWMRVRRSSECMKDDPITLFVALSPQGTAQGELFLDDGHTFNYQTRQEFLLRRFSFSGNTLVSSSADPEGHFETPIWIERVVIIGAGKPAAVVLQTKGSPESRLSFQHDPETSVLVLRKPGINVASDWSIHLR
UniProt P57678: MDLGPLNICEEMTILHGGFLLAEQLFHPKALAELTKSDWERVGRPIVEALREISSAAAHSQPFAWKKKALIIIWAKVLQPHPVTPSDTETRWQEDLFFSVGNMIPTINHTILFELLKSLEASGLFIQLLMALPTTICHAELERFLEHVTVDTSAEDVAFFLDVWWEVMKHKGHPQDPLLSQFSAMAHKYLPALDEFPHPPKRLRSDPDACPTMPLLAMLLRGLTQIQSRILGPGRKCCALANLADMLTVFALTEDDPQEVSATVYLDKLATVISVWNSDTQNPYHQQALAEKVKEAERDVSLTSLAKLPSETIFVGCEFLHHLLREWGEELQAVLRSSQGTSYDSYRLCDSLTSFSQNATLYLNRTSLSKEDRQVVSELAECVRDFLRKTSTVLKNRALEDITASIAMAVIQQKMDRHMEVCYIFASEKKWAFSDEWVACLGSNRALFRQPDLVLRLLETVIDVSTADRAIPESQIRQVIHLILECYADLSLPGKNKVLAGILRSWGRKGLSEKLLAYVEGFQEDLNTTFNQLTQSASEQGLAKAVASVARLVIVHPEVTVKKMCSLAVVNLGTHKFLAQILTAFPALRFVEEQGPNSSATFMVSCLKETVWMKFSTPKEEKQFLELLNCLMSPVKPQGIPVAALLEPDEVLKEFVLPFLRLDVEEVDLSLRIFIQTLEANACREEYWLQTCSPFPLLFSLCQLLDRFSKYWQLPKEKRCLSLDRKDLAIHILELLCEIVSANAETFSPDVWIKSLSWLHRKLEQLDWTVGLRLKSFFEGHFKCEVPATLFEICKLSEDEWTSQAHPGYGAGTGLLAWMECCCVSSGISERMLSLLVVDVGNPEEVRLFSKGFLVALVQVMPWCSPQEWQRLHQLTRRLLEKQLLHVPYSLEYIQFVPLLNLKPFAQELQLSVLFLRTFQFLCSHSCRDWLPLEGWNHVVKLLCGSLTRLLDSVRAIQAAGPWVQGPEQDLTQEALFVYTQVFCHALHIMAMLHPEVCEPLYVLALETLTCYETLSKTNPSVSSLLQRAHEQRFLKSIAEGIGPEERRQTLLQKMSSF

Tests used:
Experiment in all cases: log2 fold change, soluble protein after heating vs DMSO (PISA); higher = thermal stabilisation; K562 cells, 10 uM, 30 min; active = over 0.2 and 3.5 SD of the protein, either way, in both replicates (recomputed)
saracatinib = compound: CN1CCN(CCOc2cc(OC3CCOCC3)c3c(Nc4c(Cl)ccc5c4OCO5)ncnc3c2)CC1 [saracatinib]
Procedure, shortened: (§1)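 Quantification of soluble protein used TMTpro 16plex LC-MS/MS, with channel sums equalised. Samples were the supernatant after 21,000xg for 90 min of pooled aliquots from K562 cells (2×10^6 cells/mL) treated with 10 μM compound for 30 min, heated for 3 min over 48°C-58°C, and extracted in PBS with 0.5% NP-40 at 4°C. Values, from duplicates, describe thermal stability against control samples on a log2 fold-change scale.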

sotrastaurin = compound: CN1CCN(c2nc(C3=C(c4c[nH]c5ccccc45)C(=O)NC3=O)c3ccccc3n2)CC1 [sotrastaurin]
Procedure, shortened: as §1

alvocidib = compound: CN1CC[C@H](c2c(O)cc(O)c3c(=O)cc(-c4ccccc4Cl)oc23)[C@H](O)C1 [alvocidib]
Procedure, shortened: as §1

Tubastatin A = compound: CN1CCc2c(c3ccccc3n2Cc2ccc(C(=O)NO)cc2)C1 [Tubastatin A]
Procedure, shortened: as §1

[1] = compound: CNC(=O)C1=CC=CC=C1NC2=NC(=NC=C2Cl)NC3=C(C=C(C=C3)N4CCOCC4)OC
Procedure, shortened: as §1

defactinib = compound: CNC(=O)c1ccc(Nc2ncc(C(F)(F)F)c(NCc3nccnc3N(C)S(C)(=O)=O)n2)cc1 [defactinib]
Procedure, shortened: as §1

rucaparib = compound: CNCc1ccc(-c2[nH]c3cc(F)cc4c3c2CCNC4=O)cc1 [rucaparib]
Procedure, shortened: as §1

[2] = compound: CNc1nc(-c2ccc3c(N)n[nH]c3c2)cc(N2C[C@@H](C(=O)NC3CCCCC3)CC[C@H]2C)n1
Procedure, shortened: as §1

encorafenib = compound: COC(=O)N[C@@H](C)CNc1nccc(-c2cn(C(C)C)nc2-c2cc(Cl)cc(NS(C)(=O)=O)c2F)n1 [encorafenib]
Procedure, shortened: as §1

[3] = compound: COC(=O)[C@H](CCSC)NC(=O)C1=C(C=C(C=C1)NC[C@H](CS)N)C2=CC=CC=C2
Procedure, shortened: as §1

Measured: log2 fold change

GAR1 (UniProt Q9NY12)
inactive: saracatinib -0.102 | sotrastaurin 0.036 | alvocidib 0.213 | Tubastatin A 0.055 | [1] -0.02 | defactinib 0.304 | rucaparib 0.305 | [2] 0.055 | encorafenib 0.121 | [3] 0.018

GATAD2A isoform 3 (UniProt Q86YP4)
inactive: saracatinib -0.045 | sotrastaurin -0.162 | alvocidib -0.221 | Tubastatin A 0.001 | [1] -0.035 | defactinib -0.227 | rucaparib 0.117 | [2] 0.006 | encorafenib 0.179 | [3] -0.033

FSCN1 (UniProt Q16658)
inactive: saracatinib 0.016 | sotrastaurin -0.014 | alvocidib -0.055 | Tubastatin A -0.044 | [1] 0.087 | defactinib -0.058 | rucaparib -0.015 | [2] -0.008 | encorafenib 0 | [3] -0.013

FOXK1 (UniProt P85037)
inactive: saracatinib 0.214 | Tubastatin A -0.112 | [1] 0.2 | defactinib -0.941 | rucaparib -0.759 | [2] 0.615 | encorafenib 0.054 | [3] -0.111
active: sotrastaurin -1.37 | alvocidib -1.01

GGNBP2 (UniProt Q9H3C7)
inactive: saracatinib -0.147 | sotrastaurin -0.075 | alvocidib 0.031 | Tubastatin A 0.08 | [1] 0.059 | defactinib 0.112 | rucaparib 0.109 | [2] 0.186 | encorafenib -0.037 | [3] 0.078

FRG1 (UniProt Q14331)
inactive: saracatinib -0.053 | sotrastaurin -0.017 | alvocidib 0.202 | Tubastatin A -0.008 | [1] -0.01 | defactinib 0.119 | rucaparib 0.145 | [2] 0.043 | encorafenib 0.011 | [3] 0.026

GCN1 (UniProt Q92616)
inactive: saracatinib -0.225 | sotrastaurin -0.157 | alvocidib 0.284 | Tubastatin A 0.114 | [1] 0.004 | defactinib 0.285 | rucaparib 0.606 | [2] 0.249 | encorafenib 0.278 | [3] -0.063

GALE (UniProt Q14376)
inactive: saracatinib -0.039 | sotrastaurin 0.114 | alvocidib -0.061 | Tubastatin A -0.007 | [1] -0.011 | defactinib -0.017 | rucaparib -0.114 | [2] 0.02 | encorafenib -0.002 | [3] -0.004

Reprinted from the listing (2 entries):
GGNBP2 (UniProt Q9H3C7)
inactive: saracatinib -0.147 | sotrastaurin -0.075 | alvocidib 0.031 | Tubastatin A 0.08 | [1] 0.059 | defactinib 0.112 | rucaparib 0.109 | [2] 0.186 | encorafenib -0.037 | [3] 0.078

FRG1 (UniProt Q14331)
inactive: saracatinib -0.053 | sotrastaurin -0.017 | alvocidib 0.202 | Tubastatin A -0.008 | [1] -0.01 | defactinib 0.119 | rucaparib 0.145 | [2] 0.043 | encorafenib 0.011 | [3] 0.026

Next part

FRYL (UniProt O94915)
inactive: saracatinib -0.011 | sotrastaurin -0.04 | alvocidib -0.019 | Tubastatin A 0.049 | [1] -0.005 | defactinib -0.001 | rucaparib 0.018 | [2] -0.005 | encorafenib 0.083 | [3] 0.003

GAGE2A (UniProt Q6NT46)
inactive: saracatinib -0.044 | sotrastaurin 0.033 | alvocidib -0.002 | Tubastatin A 0.013 | [1] 0.019 | defactinib -0.035 | rucaparib -0.034 | [2] -0.068 | encorafenib -0.049 | [3] 0.105

GCAT isoform 2 (UniProt O75600)
inactive: saracatinib 0.017 | sotrastaurin -0.005 | alvocidib -0.208 | Tubastatin A 0.064 | [1] 0.12 | defactinib -0.058 | rucaparib -0.02 | [2] -0.022 | encorafenib -0.007 | [3] -0.063

GALNS (UniProt P34059)
inactive: saracatinib 0.031 | sotrastaurin 0.012 | alvocidib 0.017 | Tubastatin A 0.008 | [1] 0.014 | defactinib 0.012 | rucaparib 0.005 | [2] 0.019 | encorafenib 0.061 | [3] 0.087

GGT2 isoform 3 (UniProt P36268)
inactive: saracatinib 0.006 | sotrastaurin 0.07 | alvocidib 0.032 | Tubastatin A -0.242 | [1] -0.006 | defactinib 0.02 | rucaparib -0.008 | [2] 0.023 | encorafenib -0.002 | [3] 0.023

G3BP1 (UniProt Q13283)
inactive: saracatinib -0.011 | sotrastaurin 0.086 | alvocidib 0.137 | Tubastatin A 0.055 | [1] 0.101 | defactinib 0.161 | rucaparib 0.258 | [2] 0.02 | encorafenib 0.052 | [3] 0.038

GBA (UniProt P04062)
inactive: saracatinib -0.023 | sotrastaurin -0.071 | alvocidib 0.008 | Tubastatin A -0.023 | [1] -0.029 | defactinib -0.014 | rucaparib -0.082 | [2] -0.043 | encorafenib -0.048 | [3] 0.031

GALM (UniProt Q96C23)
inactive: saracatinib 0.018 | sotrastaurin 0.005 | alvocidib -0.058 | Tubastatin A 0.036 | [1] -0.033 | defactinib -0.076 | rucaparib -0.002 | [2] 0.05 | encorafenib 0.002 | [3] -0.067

FUBP1 (UniProt Q96AE4)
inactive: saracatinib 0.073 | sotrastaurin -0.005 | alvocidib 0.083 | Tubastatin A 0.095 | [1] 0.016 | defactinib -0.011 | rucaparib 0.046 | [2] -0.143 | encorafenib 0.08 | [3] -0.096

GAPDH (UniProt P04406)
inactive: saracatinib 0.066 | sotrastaurin 0.019 | alvocidib -0.072 | Tubastatin A -0.019 | [1] -0.014 | defactinib -0.004 | rucaparib 0.014 | [2] -0.005 | encorafenib -0.012 | [3] 0.015

FXR2 (UniProt P51116)
inactive: saracatinib -0.179 | sotrastaurin -0.011 | alvocidib 0.152 | Tubastatin A -0.05 | [1] -0.064 | defactinib 0.289 | rucaparib 0.169 | [2] 0.149 | encorafenib 0.131 | [3] -0.064

GGH (UniProt Q92820)
inactive: saracatinib -0.027 | sotrastaurin 0.052 | alvocidib 0.038 | Tubastatin A -0.001 | [1] -0.005 | defactinib -0.055 | rucaparib 0.007 | [2] -0.024 | encorafenib -0.016 | [3] 0.014

GALK2 (UniProt Q01415)
inactive: saracatinib 0.005 | sotrastaurin 0.017 | alvocidib -0.006 | Tubastatin A -0.054 | [1] -0.031 | defactinib 0.021 | rucaparib -0.066 | [2] -0.054 | encorafenib -0.002 | [3] -0.002

GANAB isoform 2 (UniProt Q14697)
inactive: saracatinib -0.054 | sotrastaurin -0.062 | alvocidib 0.019 | Tubastatin A 0.029 | [1] -0.014 | defactinib 0.048 | rucaparib 0.069 | [2] 0.029 | encorafenib 0.053 | [3] -0.009

GGA3 (UniProt Q9NZ52)
inactive: saracatinib -0.039 | sotrastaurin -0.022 | alvocidib -0.1 | Tubastatin A 0.077 | [1] -0.079 | defactinib -0.061 | rucaparib 0.012 | [2] 0.051 | encorafenib 0.049 | [3] -0.012

G3BP2 (UniProt Q9UN86)
inactive: saracatinib -0.07 | sotrastaurin 0.021 | alvocidib 0.227 | Tubastatin A 0.082 | [1] 0.129 | defactinib 0.237 | rucaparib 0.278 | [2] 0.018 | encorafenib 0.075 | [3] 0.063

GFER (UniProt P55789)
inactive: saracatinib 0.113 | sotrastaurin 0.041 | alvocidib -0.04 | Tubastatin A -0.063 | [1] -0.166 | defactinib -0.054 | rucaparib 0.129 | [2] 0.014 | encorafenib -0.104 | [3] 0.088

FXN (UniProt Q16595)
inactive: saracatinib -0.078 | sotrastaurin -0.024 | alvocidib -0.023 | Tubastatin A 0.018 | [1] 0.062 | defactinib -0.078 | rucaparib 0.078 | [2] 0.029 | encorafenib -0.037 | [3] -0.113

GEMIN4 (UniProt P57678)
inactive: saracatinib -0.192 | sotrastaurin -0.284 | alvocidib 0.416 | Tubastatin A 0.233 | [1] -0.235 | defactinib 0.318 | rucaparib 0.406 | [2] 0.142 | encorafenib 0.251 | [3] -0.248

GART (UniProt C9JZG2)
inactive: saracatinib -0.208 | sotrastaurin -0.012 | alvocidib 0.121 | Tubastatin A -0.173 | [1] 0.034 | defactinib 0.046 | rucaparib -0.47 | [2] -0.064 | encorafenib 0.048 | [3] -0.016

FTL (UniProt P02792)
inactive: saracatinib -0.195 | sotrastaurin 0.022 | alvocidib -0.01 | Tubastatin A -0.164 | [1] 0.066 | defactinib 0.019 | rucaparib 0.061 | [2] -0.216 | encorafenib 0.075 | [3] 0.074
